PubChem BioAssay AID1224830 – NIAID | 2016
This is an unselected part of about 18,000 reagents. About 2,900 of all reagents (16%) count as active. 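Calls are made per well; low scores hint the gene aids the LPS response, high scores that it dampens it.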 Repeated entries: four replicate wells of each siRNA pool.

- Test: 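Regulators of TLR4 signalling towards TNF-alpha in macrophage-like cells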 (primary screen)
- System: human THP-1 monocytic leukaemia cells, TNF dual-luciferase reporter clone, PMA-differentiated to macrophage-like cells
- Reagents: siRNA pool against human genes, 50 nM
- Duration: LPS for 4 h, given about 3 days after siRNA transfection
- Conditions: bacterial LPS (TLR4 ligand), 10 ng/ml
- Read-out: 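TNF firefly reporter luminescence divided by renilla, normalised to the plate median, then turned into a robust z-score for each replicate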
- Direction: TNF reporter robust z-score: higher = stronger TNF reporter response to LPS
- Rule for the call: 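a well is active when its z-score exceeds 2.8 or falls below -1.5; control wells carry no call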

Gene | TNF reporter robust z-score | Outcome
HLA-C | 0.75 | inactive
HLA-C | 0.62 | inactive
HLA-C | 0.71 | inactive
HLA-C | -0.17 | inactive
WWTR1 | -0.47 | inactive
WWTR1 | 0.52 | inactive
WWTR1 | 0.21 | inactive
WWTR1 | 0.88 | inactive
ZBTB41 | 1.71 | inactive
ZBTB41 | 2.21 | inactive
ZBTB41 | 0.7 | inactive
ZBTB41 | 1.13 | inactive
LUM | -0.02 | inactive
LUM | 1.36 | inactive
LUM | 2.88 | active
LUM | 2.87 | active
SCARB2 | -0.97 | inactive
SCARB2 | -0.31 | inactive
SCARB2 | -0.91 | inactive
SCARB2 | -1.09 | inactive
PAPSS1 | 0.44 | inactive
PAPSS1 | 0.08 | inactive
PAPSS1 | 0.11 | inactive
PAPSS1 | 1.2 | inactive
ZNF831 | -0.6 | inactive
ZNF831 | 0.99 | inactive
ZNF831 | -0.94 | inactive
ZNF831 | -0.1 | inactive
GBE1 | -0.32 | inactive
GBE1 | 0.31 | inactive
GBE1 | 0.73 | inactive
GBE1 | 0.82 | inactive
WDR11 | 0.67 | inactive
WDR11 | -0.04 | inactive
WDR11 | -0.49 | inactive
WDR11 | -0.5 | inactive
CTSK | -0.19 | inactive
CTSK | -0.2 | inactive
CTSK | -0.9 | inactive
CTSK | -0.62 | inactive
PRXL2B | -1.02 | inactive
PRXL2B | 0.02 | inactive
PRXL2B | 0.39 | inactive
PRXL2B | -0.53 | inactive
OR51E1 | -0.2 | inactive
OR51E1 | 2.28 | inactive
OR51E1 | 1.65 | inactive
OR51E1 | 0.43 | inactive
COP1 | -2.08 | active
COP1 | -0.37 | inactive
COP1 | -0.66 | inactive
COP1 | -0.36 | inactive
KCTD7 | -0.91 | inactive
KCTD7 | -0.67 | inactive
KCTD7 | -0.6 | inactive
NEUROD1 | 0.64 | inactive
NEUROD1 | 0.6 | inactive
NEUROD1 | 0.08 | inactive
NEUROD1 | 0.81 | inactive
TTC9B | 0.15 | inactive
TTC9B | -0.33 | inactive
TTC9B | -0.14 | inactive
TTC9B | 0.27 | inactive
TTC12 | -0.16 | inactive
TTC12 | 0.53 | inactive
TTC12 | 0.06 | inactive
TTC12 | 0.76 | inactive
OR5D16 | -0.67 | inactive
OR5D16 | -1.39 | inactive
OR5D16 | -1.01 | inactive
OR5D16 | -0.54 | inactive
GRB10 | -0.34 | inactive
GRB10 | -0.08 | inactive
GRB10 | -0.53 | inactive
GRB10 | -0.38 | inactive
NARS1 | 1.19 | inactive
NARS1 | -0.08 | inactive
NARS1 | -0.23 | inactive
NARS1 | -0.2 | inactive
CABP7 | 0.19 | inactive
CABP7 | -0.84 | inactive
CABP7 | -0.65 | inactive
CABP7 | 0.99 | inactive
BLTP3A | -0.22 | inactive
BLTP3A | -0.09 | inactive
BLTP3A | -0.29 | inactive
BLTP3A | 0.09 | inactive
SPATA2 | -0.56 | inactive
SPATA2 | 1.89 | inactive
SPATA2 | -0.03 | inactive
SPATA2 | -0.43 | inactive
TBC1D32 | 0.01 | inactive
TBC1D32 | 0.3 | inactive
TBC1D32 | 0.15 | inactive
TBC1D32 | 1.04 | inactive
CYP51A1 | -0.06 | inactive
CYP51A1 | 0.17 | inactive
CYP51A1 | 0.15 | inactive
CYP51A1 | 0.27 | inactive
MED20 | -1.11 | inactive
MED20 | 0.17 | inactive
MED20 | 0.14 | inactive
MED20 | 0.51 | inactive
TMEM205 | -1.09 | inactive
TMEM205 | -0.89 | inactive
TMEM205 | -1.28 | inactive
TMEM205 | -1.16 | inactive
GABRA2 | -0.58 | inactive
GABRA2 | -0.13 | inactive
GABRA2 | -0.92 | inactive
GABRA2 | -1 | inactive

Records above called active, once more:
Gene | TNF reporter robust z-score | Outcome
LUM | 2.88 | active
LUM | 2.87 | active
COP1 | -2.08 | active
